The nature of this data set: general procedure: solution-phase peptide synthesis; N-(3-dimethylaminopropyl)-N'-ethylcarbodiimide hydrochloride / 1-hydroxy-1H-benz. The conditions noted are these: bis-trifluoroacetate, hydrochloride for some examples.

As for “20-O-[Prolyl-leucyl-glycyl-leucyl-histidyl-valyl]-camptothecin bis-trifluoro-acetate”, the step yield reads like this: (coupling step) 77%; (late stage modification step) 91%.
Turning to “N-tert-butoxycarbonyl-prolyl-leucyl-glycyl-leucin”, the step yield (coupling step) is given as 42%.

The values above are taken from US20020173452A1 (priority 2000, published 2002).
